Experiment [1] concerns the target NMDAR subunit 2B (rat (endogenous in rat cortex)) (UniProt Q00960). Put plainly: co-IP; P4 rat cortex membranes solubilised with 1% deoxycholate, dialysed against 50 mM Tris-HCl pH 7.5, 0.1% Triton X-100; 1 mg protein with Nlg or NR2B antibody overnight, Protein G sepharose; western blot. On the technique in general: In western blotting, separated proteins are transferred to a membrane and probed.

Protein sequences, listed by entry. Tags and fused reporters are not part of them. Residues count along the entry.
UniProt Q62765, residues 46-843: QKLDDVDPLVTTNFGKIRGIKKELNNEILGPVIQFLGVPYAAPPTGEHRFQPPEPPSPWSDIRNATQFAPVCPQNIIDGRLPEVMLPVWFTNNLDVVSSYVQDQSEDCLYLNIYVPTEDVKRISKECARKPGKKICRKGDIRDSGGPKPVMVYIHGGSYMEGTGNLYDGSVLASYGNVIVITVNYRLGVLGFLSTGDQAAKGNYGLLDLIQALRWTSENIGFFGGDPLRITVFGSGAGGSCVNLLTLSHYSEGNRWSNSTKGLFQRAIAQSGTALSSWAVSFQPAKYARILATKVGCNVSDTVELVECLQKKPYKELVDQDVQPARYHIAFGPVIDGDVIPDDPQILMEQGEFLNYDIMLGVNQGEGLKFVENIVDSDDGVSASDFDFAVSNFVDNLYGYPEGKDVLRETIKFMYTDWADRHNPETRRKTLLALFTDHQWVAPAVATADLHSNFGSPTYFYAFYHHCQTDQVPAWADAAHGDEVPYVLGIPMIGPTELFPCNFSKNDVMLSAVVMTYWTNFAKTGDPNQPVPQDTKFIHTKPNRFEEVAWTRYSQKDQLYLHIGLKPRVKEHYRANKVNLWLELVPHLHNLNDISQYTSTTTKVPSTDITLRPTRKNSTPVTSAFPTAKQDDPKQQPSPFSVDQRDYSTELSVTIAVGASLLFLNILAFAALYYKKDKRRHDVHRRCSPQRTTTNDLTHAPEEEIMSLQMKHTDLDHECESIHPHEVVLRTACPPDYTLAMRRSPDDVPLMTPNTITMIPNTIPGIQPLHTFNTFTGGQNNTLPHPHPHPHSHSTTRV
UniProt P19491, residues 22-883: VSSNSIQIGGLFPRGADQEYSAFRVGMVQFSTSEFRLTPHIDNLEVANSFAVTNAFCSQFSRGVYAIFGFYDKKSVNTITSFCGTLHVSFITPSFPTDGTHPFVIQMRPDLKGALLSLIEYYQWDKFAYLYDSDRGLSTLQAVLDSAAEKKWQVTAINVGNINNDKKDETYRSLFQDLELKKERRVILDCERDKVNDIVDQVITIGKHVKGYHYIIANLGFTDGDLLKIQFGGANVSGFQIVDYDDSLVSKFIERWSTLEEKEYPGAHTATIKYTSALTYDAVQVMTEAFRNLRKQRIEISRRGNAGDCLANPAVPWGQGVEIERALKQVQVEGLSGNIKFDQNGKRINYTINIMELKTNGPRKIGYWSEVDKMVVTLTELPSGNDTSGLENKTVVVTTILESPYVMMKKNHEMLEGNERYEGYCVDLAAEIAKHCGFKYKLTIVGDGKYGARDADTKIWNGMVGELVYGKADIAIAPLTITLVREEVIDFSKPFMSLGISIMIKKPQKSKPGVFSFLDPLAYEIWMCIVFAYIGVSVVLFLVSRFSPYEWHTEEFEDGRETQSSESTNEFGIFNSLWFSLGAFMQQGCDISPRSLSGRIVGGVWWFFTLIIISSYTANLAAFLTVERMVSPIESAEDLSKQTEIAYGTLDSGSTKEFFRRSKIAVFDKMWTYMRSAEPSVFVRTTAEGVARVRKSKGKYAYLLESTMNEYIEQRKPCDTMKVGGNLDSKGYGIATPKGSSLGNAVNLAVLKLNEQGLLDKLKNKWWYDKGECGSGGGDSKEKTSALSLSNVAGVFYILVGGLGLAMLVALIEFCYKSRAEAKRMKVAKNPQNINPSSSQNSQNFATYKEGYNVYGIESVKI

The target of experiment [2] is neuroligin1 (rat (endogenous in rat cortex and in cultured rat cortical neurons)) (UniProt Q62765). The description is as above.
Experiment [3] deals with NMDAR subunit 1 (rat (endogenous in rat cortex)) (UniProt P35439). The experiment can be described thus: condition: only after incubation of the beads with carbonate buffer pH11 for 30 minutes; immuno-isolation of membrane organelles; NR1 immuno-isolate on anti-NR1 Dynabeads from P2-3 rat cortex, beads incubated with carbonate buffer pH11 for 30 minutes; western blot, compared with pH7.4.

The target is the same in experiment [4]. The experiment can be described thus: immuno-isolation of membrane organelles; anti-NR1 antibody on Dynabeads with 250 μg of P2-3 rat cortex light membrane supernatant, 5% bovine serum albumin, overnight at 4°C; washed with homogenization buffer without detergent (intact membranes); western blot, percent of total input after subtraction of the control.

These are yes or no findings as the source states them, for the method shown. For some assays here: Binding seen in cells or lysates may run through a third protein. Some results given as binding are weak or reduced against the parent protein; the word gives no strength.

Regarding “AMPA receptor (AMPAR) subunit GluR2 (from UniProt P19491 22-883)”, the binding result in experiment [1] and in experiment [2] was “no binding” in each case.

Consider “NMDAR subunit 1 (from UniProt P35439 19-938) (receptor)”, for which the binding entry in experiment [2] was “binds”.

On to “neuroligin1 (from UniProt Q62765 46-843)”, for which the figures for the binding entry in experiment [1] and in experiment [3] were “binds” and “no binding”, respectively.

For the molecule synapsin1 (from UniProt P09951 1-704), the binding result in experiment [1] and in experiment [2] was “no binding” in each case.

B1: vesicular glutamate transporter 1 (protein, UniProt Q62634 1-560)
chain: MEFRQEEFRKLAGRALGRLHRLLEKRQEGAETLELSADGRPVTTHTRDPPVVDCTCFGLPRRYIIAIMSGLGFCISFGIRCNLGVAIVSMVNNSTTHRGGHVVVQKAQFNWDPETVGLIHGSFFWGYIVTQIPGGFICQKFAANRVFGFAIVATSTLNMLIPSAARVHYGCVIFVRILQGLVEGVTYPACHGIWSKWAPPLERSRLATTAFCGSYAGAVVAMPLAGVLVQYSGWSSVFYVYGSFGIFWYLFWLLVSYESPALHPSISEEERKYIEDAIGESAKLMNPVTKFNTPWRRFFTSMPVYAIIVANFCRSWTFYLLLISQPAYFEEVFGFEISKVGLVSALPHLVMTIIVPIGGQIADFLRSRHIMSTTNVRKLMNCGGFGMEATLLLVVGYSHSKGVAISFLVLAVGFSGFAISGFNVNHLDIAPRYASILMGISNGVGTLSGMVCPIIVGAMTKHKTREEWQYVFLIASLVHYGGVIFYGVFASGEKQPWAEPEEMSEEKCGFVGHDQLAGSDESEMEDEVEPPGAPPAPPPSYGATHSTVQPPRPPPPVRDY
For the molecule B1, in experiment [4], the binding result is on record as “no binding”.
